Assay results taken from PMC4761979.
Results are given in words; binding and its absence hold for the method and conditions named.

Key:
isoD7-Aβ_(1–10) (human) [1] = molecular target: T1, isoD7-Aβ_(1–10) (human); assay: dynamic light scattering; peptide with two-fold molar excess of ZnCl2, measured within 10 minutes; peptide concentrations of Table 1: Aβ1-16 5.0 mM, H6R-Aβ1-16 1.0 mM, isoD7-Aβ1-16 0.8 mM, Aβ6-16 2.0 mM, isoD7-H13R-Aβ1-16 1.0 mM, isoD7-Aβ1-10 1.0 mM; both purified; conditions: remark: other sources report otherwise
T1 chain: DAEFRHDSGY

isoD7-Aβ_(1–10) (human) [2] = molecular target: T1, isoD7-Aβ_(1–10) (human); assay: condition: total concentration of peptide and ZnCl2 from 1.0 to 1.7 mM; NMR titration; method of continuous variations: peptide and ZnCl2 in varying proportions at a fixed total concentration (from 1.0 to 1.7 mM); titration of 1.0-1.5 mM peptide with ZnCl2 at pH 6.8-7.0; both purified; conditions: remark: other sources report otherwise

B1: isoD7-Aβ_(1–10) (peptide)
chain: DAEFRHDSGY
modifications: here or on the partner: isoaspartate at 7; N-terminal acetyl; C-terminal amide; isoaspartate at 7; N-terminal acetyl; C-terminal amide
binding (isoD7-Aβ_(1–10) (human) [1]): no binding (tested: 1.0 mM peptide) | binding (isoD7-Aβ_(1–10) (human) [2]): no binding
